Primary screen of a compound library

Source: ChEMBL document CHEMBL3988442, “University of Dundee, Small-Polar-MMV Screening Library” (2021).

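Whole-cell growth test on Mycobacterium tuberculosis, read after 4 days in a medium based on cholesterol and the lipid DPPC; the read-out is not stated. Tested at 50 µM. The record gives no direction; compounds that gave an IC50 in retests scored well above the rest, so higher reads as more growth inhibition. About 69,000 compounds were tested under these conditions; 0.54% (about 370) showed 50% or more at least once.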

The filed quantity is “Percent Effect” (%). How 0% and 100% were set is not recorded. Most values in the screen are low, and negative values occur. The compounds are a random part of those screened. Two or more numbers in one place are separate tests of the same structure; such repeats can differ widely.

SMILES: CCn1ccc(C(=O)NCCCN2CCOCC2)n1
effect: -26.4%

SMILES: CC(CNC1CCN(c2ccccn2)CC1)Oc1ccc(F)cc1 (configuration not stated)
effect: -0.624% and -26.99%

SMILES: O=C(O)c1ccnc(-c2ccnc(N3CCC(F)(F)CC3)n2)c1
effect: -26.55%

SMILES: CC(C)(CN1C[C@H](Nc2ncccn2)[C@@H](C2CC2)C1)N1CCOCC1
effect: 2.965%

SMILES: COc1ccccc1CNc1ncnc2c1NC(=O)CN2
effect: -25.4%

SMILES: CCn1cnnc1C1CCN(C(=O)CC(C)n2cccc2)CC1 (configuration not stated)
effect: -8.374% and -20.12%

SMILES: Cc1ccccc1CN1CCC(NCC2CNc3ccnn3C2)CC1 (configuration not stated)
effect: -20.05%

SMILES: O=C(CSc1nnc[nH]1)NCc1cccs1
effect: -30.49%

SMILES: CCn1cc(-c2cc(C(F)(F)F)n(CCCN)n2)cn1
effect: -23.81%

SMILES: [H][C@]12CC[C@]([H])(CN(S(=O)(=O)c3cccc(Cl)c3C)C1)N(C)C2=O
effect: -6.411%

SMILES: CSc1nc(N)c2c(n1)N=C1COC(O)=C1C2c1cccc(Cl)c1 (configuration not stated)
effect: -9.447%

SMILES: Cc1noc(C(C)C)c1C(=O)NCCN1CCOCC1
effect: -11.85%

SMILES: CCNc1cc2c(nn1)CCN(C(=O)CCc1c(C)noc1C)C2
effect: -6.778%

SMILES: CN(CCn1nc2ccccn2c1=O)CC(=O)N1CCCC1
effect: -4.268%

SMILES: CC(=O)c1ccc(-c2cnn(CC(=O)Nc3cc(C)nn3C)c2)nc1
effect: -1.125%

SMILES: CN1CCC(NN2CCN(C)CC2)CC1
effect: 1.583%

SMILES: O=C1CC(c2ccccc2)c2sc(C(=O)O)c(-c3ccccc3)c2N1 (configuration not stated)
effect: -27.58%

SMILES: CCc1cccc2c(CC(=O)N(C)CCN(C)C)c(C)[nH]c12.O=C(O)CC(O)(CC(=O)O)C(=O)O
effect: -6.533% and 1.185%

SMILES: [H][C@@]12C[C@@H](Oc3cncnc3)CN1CCN(C(=O)c1ccc(C)nc1)C2
effect: 7.288%

SMILES: Cn1ccc(C(=O)N2CCCC(Cc3cccc4ncccc34)C2)n1 (configuration not stated)
effect: 15.97%

SMILES: NCCn1cc(C(=O)NCc2ccccc2Cn2cccn2)nn1
effect: 2.093%

SMILES: O=C(c1cnc(-c2cccs2)s1)N1CCCC(n2cccn2)C1 (configuration not stated)
effect: 23.13%

SMILES: CCS(=O)(=O)c1ncc(CN2CCN(C)CC2)n1CCc1ccccc1
effect: 18.72%

SMILES: COc1ccccc1OC1CCN(c2ccncc2)CC1
effect: -23.56%

SMILES: c1cnc(-c2nc(CN3CCCC(Cn4cncn4)C3)cs2)nc1 (configuration not stated)
effect: 10.86%

SMILES: O=C(O)C(F)(F)F.[H][C@@]12CCC(=O)N(c3ccccc3)[C@]1([H])CCN2C(=O)c1cccc(C)n1
effect: -35.23% and -43.09%

SMILES: Cc1ccc(N2CCCC(NCc3cnc(C)s3)C2)nn1 (configuration not stated)
effect: -8.03%

SMILES: Cc1noc(C)c1CN(C)CCc1nc(-c2cccc(Cl)c2)no1
effect: 15.43%

Once more, the final 3:

{"smiles": "O=C(O)C(F)(F)F.[H][C@@]12CCC(=O)N(c3ccccc3)[C@]1([H])CCN2C(=O)c1cccc(C)n1", "effect": "-35.23 and -43.09"}
{"smiles": "Cc1ccc(N2CCCC(NCc3cnc(C)s3)C2)nn1", "stereo": "configuration not stated", "effect": -8.03}
{"smiles": "Cc1noc(C)c1CN(C)CCc1nc(-c2cccc(Cl)c2)no1", "effect": 15.43}